Single values of this set are uncertain.
B1: Rpb7; numbered along this chain (parent)
chain: MFFIKDLSLNITLHPSFFGPRMKQYLKTKLLEEVEGSCTGKFGYILCVLDYDNIDIQRGRILPTDGSAEFNVKYRAVVFKPFKGEVVDGTVVSCSQHGFEVQVGPMKVFVTKHLMPQDLTFNAGSNPPSYQSSEDVITIKSRIRVKIEGCISQVSSIHAIGSIKEDYLGAI

Key:
[1] = variants of: B1; assay: log2 fold change of mutant abundance, UV-irradiated vs unirradiated; higher = more UV resistant (enriched after UV); details: with Saccharomyces cerevisiae rad7Δ rad26Δ; UV dose (J/m2): 10; genetic background: rad7Δ rad26Δ rpb7Δ + plasmid RPB7 library; outgrowth: 10 cell divisions
Description: (§1)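 Error-prone PCR random mutant library of yeast RPB7 (codons 2-171) on a LEU2 plasmid, shuffled into rad7Δ rad26Δ S. cerevisiae (BJ5465 background) with genomic RPB7 deleted. Cells were irradiated with 10 J/m2 UV (254 nm) or left unirradiated and grown for 10 divisions. Plasmid RPB7 amplicons were Illumina-sequenced and per-codon amino-acid counts were compared UV vs no UV with NOISeq (3 repeats, ARSyNseq batch correction). Positive log2FC means enrichment after UV, i.e. UV resistance / derepressed TCR.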

[2] = variants of: B1; assay: NOISeq theta enrichment statistic, UV-irradiated vs unirradiated (dimensionless); higher = more UV resistant (enriched after UV); details: with Saccharomyces cerevisiae rad7Δ rad26Δ; UV dose (J/m2): 10; genetic background: rad7Δ rad26Δ rpb7Δ + plasmid RPB7 library; outgrowth: 10 cell divisions
Description: as §1

Variant | log2 fold change of mutant abundance [1] | NOISeq theta enrichment statistic [2]
S152N | 0.238 | 0.692
S133L | -0.0839 | -0.0366
L7Q | -0.947 | -0.427
K112G | -0.028 | -0.026
K112I | 0.271 | 0.194
C47F | -0.12 | -0.331
V103E | 0.0663 | 0.299
V103F | 0.193 | 0.166
V91Y | 0.108 | 0.0863
V91L | 0.0584 | 0.0935
V91I | -0.0179 | -0.0627
G84D | -0.22 | -0.132
G84S | 0.175 | 0.157
G84W | -0.0633 | -0.177
D118T | -0.0406 | -0.028
D118R | 0.0458 | 0.0467
F2V | 0.128 | 0.169
I56V | 0.0988 | 0.242
D55Y | -0.0551 | -0.227
T39M | 0.206 | 0.585
V78D | -0.0711 | -0.106
V86M | -0.115 | -0.102
V86T | 0.25 | 0.184

Variant | log2 fold change of mutant abundance [1] | NOISeq theta enrichment statistic [2]
V86F | 0.173 | 0.161
S8W | 0.147 | 0.146
G161S | 0.182 | 0.364
L9V | 0.0634 | 0.0721
S67A | 0.11 | 0.259
S67D | -0.452 | -0.285
S162N | -0.0403 | -0.0894
S162I | 0.111 | 0.141
S162T | -0.328 | -0.332
H14K | 0.173 | 0.106
L49P | 0.218 | 0.395
Q131L | -0.322 | -1.01
S93G | -0.327 | -0.239
S93Q | -0.0994 | -0.123
E100D | -0.0471 | -0.313
D50H | 0.403 | 0.472
K164N | -0.172 | -0.414
N10C | 0.425 | 0.255
N10P | -0.0777 | -0.0558
N10I | -0.0799 | -0.391
M106R | 0.0649 | 0.274
M106C | 0.0141 | 0.00942
V87L | 0.0228 | 0.132

Single entries from the entries so far:
L9V | NOISeq theta enrichment statistic [2]: 0.0721
D50H | log2 fold change of mutant abundance [1]: 0.403
V87L | NOISeq theta enrichment statistic [2]: 0.132
S67D | NOISeq theta enrichment statistic [2]: -0.285
N10P | log2 fold change of mutant abundance [1]: -0.0777

Further records:

Variant | log2 fold change of mutant abundance [1] | NOISeq theta enrichment statistic [2]
V87I | 0.189 | 0.183
E134N | 0.678 | 0.345
E134W | -0.0373 | -0.0254
F17R | 0.435 | 0.284
Y51L | 0.0538 | 0.052
D88I | 0.144 | 0.121
Q102V | 0.0398 | 0.0318
Q102P | 0.106 | 0.235
N122D | 0.164 | 0.53
N122Q | 0.83 | 0.43
G89R | -0.00414 | -0.00562
G89D | 0.0257 | 0.107
G89L | -0.382 | -0.296
L13T | 0.121 | 0.0633
L13R | -0.38 | -0.291
G124C | 0.142 | 0.631
G124F | -0.463 | -0.27
G124E | 0.131 | 0.0999
G124T | 0.135 | 0.0856
Y130N | -0.194 | -0.403
K29M | 0.547 | 0.279
K29I | -0.186 | -0.544
K29G | 1.56 | 0.719

Variant | log2 fold change of mutant abundance [1] | NOISeq theta enrichment statistic [2]
V145A | -0.143 | -0.253
K80A | 0.239 | 0.143
V154E | -0.92 | -1.42
T28P | -0.266 | -0.276
T28I | -0.0097 | -0.0269
T28N | -0.717 | -0.448
T28S | -0.0236 | -0.0922
K27N | 0.0611 | 0.156
K27R | 0.0657 | 0.196
N126I | -0.0173 | -0.0649
N126D | 0.565 | 1.48
N126Y | -0.442 | -1.46
G66K | -0.675 | -0.327
G66V | -0.0216 | -0.0763
K107I | -0.0278 | -0.127
K107P | 0.124 | 0.0741
R58H | 0.0848 | 0.425
I137S | 0.0702 | 0.102
I137A | -0.245 | -0.0959
D52N | 0.207 | 0.371
D52E | 0.00378 | 0.0153
N71H | -0.0659 | -0.227
V136Y | 0.376 | 0.266

Variant | log2 fold change of mutant abundance [1] | NOISeq theta enrichment statistic [2]
L114R | -0.103 | -0.403
L114M | 0.0506 | 0.186
F82G | -0.118 | -0.0931
F79D | 0.192 | 0.157
F79N | -0.32 | -0.174
F79L | 0.0714 | 0.347
Y167F | 0.0656 | 0.123
Y74K | -0.172 | -0.118
Q117L | 0.0946 | 0.472
Q117H | -0.00509 | -0.0349
Q117A | 0.0108 | 0.00673
Q117Y | 0.557 | 0.345
I4M | 0.318 | 0.312
I4Y | -0.28 | -0.113
I4R | -0.134 | -0.129
P128R | -0.0187 | -0.0243
I160S | 0.154 | 0.184
G43V | -0.0786 | -0.154
G43A | -0.444 | -0.352
I61F | -0.0209 | -0.016
I61A | 0.53 | 0.266
E69G | -0.0859 | -0.348
K23P | 0.127 | 0.105
